Holding throughout (format): cell-based, human
Test [1] addresses α1β2 157-4-Me-Phe GABAA receptor. The test is described as follows: GABA concentration-response, voltage-clamp in oocytes, β2 157-4-Me-Phe.
The target of test [2] is α1β2 97-3,5-F2-Phe GABAA receptor. As to the kind of experiment: GABA concentration-response, voltage-clamp in oocytes, β2 97-3,5-F2-Phe.
Test [3] deals with α1 65-4-F-Phe β2 GABAA receptor. The test is described as follows: GABA concentration-response, voltage-clamp in oocytes, α1 65-4-F-Phe.
The target of test [4] is α1β2 157-3,4,5-F3-Phe GABAA receptor. The test is described as follows: GABA concentration-response, voltage-clamp in oocytes, β2 157-3,4,5-F3-Phe.
In test [5] the target is α1β2 157-3,5-F2-Phe GABAA receptor. The test is described as follows: GABA concentration-response, voltage-clamp in oocytes, β2 157-3,5-F2-Phe.
For test [6], the target named is α1β2 205-3,5-F2-Phe GABAA receptor. The test is described as follows: GABA concentration-response, voltage-clamp in oocytes, β2 205-3,5-F2-Phe.
The target in test [7] is α1β2 97-3,4,5-F3-Phe GABAA receptor. As to the kind of experiment: GABA concentration-response, voltage-clamp in oocytes, β2 97-3,4,5-F3-Phe.
Test [8] deals with α1β2 205-3,4,5-F3-Phe GABAA receptor. As to the kind of experiment: GABA concentration-response, voltage-clamp in oocytes, β2 205-3,4,5-F3-Phe.

Marks after values point to notes of the source that are not given here.

What is called EC50 is the midpoint of the concentration-response curve. For `NCCCC(=O)O` [GABA], the EC50 stood at 150 µM in test [1]; 420 µM in test [2] (α1β2 97-3,5-F2-Phe); 11 µM in test [3]; 110 µM in test [4]; 420 µM in test [5]; 70 µM in test [6]. Besides, the values for the EC50 in test [7] (α1β2 97-3,4,5-F3-Phe) and in test [8] were 9900 µM and 90 µM, respectively. Besides, the “LogEC50 ± SEM” value is on record as −3.817 ± 0.15 ^a in test [1] (log of molar EC50); −3.372 ± 0.05 ^a in test [2] (α1β2 97-3,5-F2-Phe, log of molar EC50); −4.962 ± 0.06 ^a in test [3] (log of molar EC50); −3.950 ± 0.08 ^a in test [4] (log of molar EC50); −3.371 ± 0.04 ^a in test [5] (log of molar EC50); −4.174 ± 0.06 ^a in test [6] (log of molar EC50). In addition, the “LogEC50 ± SEM” value in test [7] (α1β2 97-3,4,5-F3-Phe, log of molar EC50) is −2.002 ± 0.04 ^a; in test [8] (log of molar EC50), −4.039 ± 0.05 ^a. Moreover, the “additional increase in EC50” value in test [2] (β2 97-3,5-F2-Phe vs β2 97-4-F-Phe) turned out to be 22 fold. Also, the “final increase in EC50” value in test [7] (β2 97-3,4,5-F3-Phe vs β2 97-3,5-F2-Phe) came out at 24 fold.
